From PubChem BioAssay AID504467 (National Center for Advancing Translational Sciences (NCATS), 2011)
About 7,700 (2.3%) of roughly 330,000 compounds were called active. Inconclusive results, whose numbers are uncertain, are shown with a selection of clear calls. Calls come from the whole dose curve; as a rule, active = well fitted inhibition curve with a large enough effect; inconclusive = small, poorly fitted or top-dose-only effect, or effect the other way; inactive = flat fitted curve, though single readings scatter. Where the call is inconclusive, the potency comes from a doubtful curve fit.

assay: qHTS screen for small molecules that inhibit ELG1-dependent DNA repair in human embryonic kidney (HEK293T) cells expressing luciferase-tagged ELG1; conditions: HEK293T ELG1-luciferase reporter, luminescence, 16 h, DNA damage induced by 5-fluorouridine; activity change, negative = inhibition: at 46.1 µM (top of the series); note: nearly all actives have a fitted effect of over 55% in size
In short: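 Quantitative HTS, concentration-response format. 2,000 cells/well co-treated with 5-fluorouridine and compound, 16 hr in 5% CO2 at 37 °C; ONE-Glo luminescence read after 30 min.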
% is set by controls: 0 for no effect and ±100 for the full control effect; potency is the fitted concentration of half-maximal effect.

Row | Compound | Potency | activity change, negative = inhibition
1 | CCCn1c(N)c(C(=O)CSc2nnc(-c3c[nH]c4ccccc34)n2C2CC2)c(=O)[nH]c1=O | inconclusive: 18.3 µM [inhibitor, single point] | –
2 | CN(Cc1ccccc1)C1=CC(=[N+]2CCCC2)CC(C)(C)C1 | active: 0.259 µM | –
3 | Cc1cc(S(=O)(=O)Nc2nc(CN3CCOCC3)nc3sc4c(c23)CCC4)cc(C)c1C | – | inactive: 16.6%
4 | CC(C)(C)c1cc[n+](-c2[nH]c(=O)sc2/C=N/NC(=O)c2ccccc2[O-])cc1 | inconclusive: 25.9 µM [activator, partial curve, poor fit] | –
5 | CSc1ccccc1NC(=O)CO/N=C(\C)c1cc2ccccc2o1 | inconclusive: 29.1 µM [activator, single point] | –
6 | COc1ccc(CCNc2cc(-c3ccccc3)nc3ncnn23)cc1 | inconclusive: 35.5 µM [inhibitor, single point] | –
7 | NS(=O)(=O)c1cccc(NC(=O)c2cccc(-c3ccc(O)cc3)c2)c1 | inconclusive: 20.6 µM [activator, partial curve, poor fit] | –
8 | O=Cc1cc(N=Nc2ccccc2Cl)ccc1O | inconclusive: 5.8 µM [activator, partial curve] | –
9 | CN(Cc1cnn(C)c1)C(=O)C1CCC(=O)N(Cc2ccc(Cl)cc2)C1 (configuration not stated) | inconclusive: 29.1 µM [activator, partial curve, poor fit] | –
10 | O=C(COc1ccc(Cl)cc1Cl)c1ccc[nH]1 | inconclusive: 18.3 µM [activator, partial curve] | –
11 | Cc1ccc(S(=O)(=O)N2CCOCC2)cc1NC(=O)c1cc(-c2ccccn2)nc2ccccc12 | inconclusive: 18.3 µM [inhibitor, single point] | –
12 | CCCCN=C1NN=C(c2cc3ccccc3o2)CS1 | inconclusive: 13 µM [activator, partial curve] | –
13 | Cc1cccc(CCNCc2c(C(=O)O)c(C)n(-c3ccccc3)c2C)c1 | inconclusive: 32.6 µM [activator, single point] | –
14 | O=c1oc(CCCO)cc2ccc(/C=C/c3cccc([N+](=O)[O-])c3)cc12 | inconclusive: 2.31 µM [activator, full curve] | –
15 | Cc1nc2ccccc2c2c1CC(C(C)(Cl)Br)O2 (configuration not stated) | inconclusive: 3.66 µM [inhibitor, partial curve, poor fit] | –
16 | Cc1ccc(S(=O)(=O)N(C)C)cc1NC(=O)COC(=O)/C=C/c1ccc(F)cc1 | – | inactive: 6.48%
17 | Cc1cccnc1NC(=O)Nc1ccccc1 | inconclusive: 20.6 µM [activator, partial curve] | –
18 | Cc1nc2ccc(NC(=O)c3ccc(Br)o3)cc2s1 | inconclusive: 14.6 µM [activator, partial curve] | –
19 | Oc1cccc(NC(=S)N=Nc2c(O)[nH]c3ccccc23)c1 | inconclusive: 4.61 µM [activator, partial curve] | –
20 | Cn1c(=O)oc2cc(S(=O)(=O)Nc3ccccc3)ccc21 | – | inactive: 29.5%
21 | CCc1ccc(NC(=O)N2CCCCCC2)cc1 | inconclusive: 11.6 µM [activator, partial curve] | –

Row | Compound | Potency | activity change, negative = inhibition
22 | COc1cc(OC)c(OC)cc1CN1CCN(S(=O)(=O)c2ccc(F)cc2)CC1 | inconclusive: 23.1 µM [inhibitor, single point] | –
23 | CC1=C(C(=O)OCC2CCCO2)C(c2ccc(Cl)c(Cl)c2)NC(=O)N1 (configuration not stated) | inconclusive: 23.1 µM [inhibitor, single point] | –
24 | COC(=O)c1cccc(N2CCCC2=O)c1 | – | inactive: 6.25%
25 | Cc1ccc(C(=O)N/N=C2\SCC(=O)N2c2cc(C)ccc2C)cc1 | – | inactive: 27%
26 | COc1ccc(C2CCCN2C(=S)Nc2ccc(C)cc2C)cc1OC (configuration not stated) | inconclusive: 29.1 µM [inhibitor, single point] | –
27 | CCOc1ccc(NC(=O)CN(C)C(=O)c2ccc(N3CCCCCC3)c([N+](=O)[O-])c2)cc1OCC | inconclusive: 11.6 µM [inhibitor, single point] | –
28 | CCOC(=O)c1nn(-c2ccc(Cl)cc2)cc1O | inconclusive: 14.6 µM [activator, partial curve] | –
29 | CC(C)(C)c1ccc(-c2nnc(SCC(=O)NCC3CCCO3)n2N)cc1 (configuration not stated) | inconclusive: 16.4 µM [activator, single point] | –
30 | O=C(c1c[nH]c2ccccc12)N1CCN(Cc2ccccc2)CC1 | – | inactive: -6.41%
31 | CCCCCCCCCCCCS(=O)(=O)CCC(=O)O | inconclusive: 6.51 µM [inhibitor, single point] | –
32 | C=CCNC(=O)c1cc(-c2ccccc2O)on1 | inconclusive: 4.11 µM [activator, partial curve, poor fit] | –
33 | O=C(CSc1nnc(-c2ccccn2)o1)Nc1ccccc1Cl | inconclusive: 9.2 µM [activator, partial curve] | –
34 | Cc1cccc(NC(=O)CCSc2ccccc2)c1C | inconclusive: 16.4 µM [activator, single point] | –
35 | CCN(CC)C(=O)C1CCCN(c2ccc([N+](=O)[O-])cc2/C=N/NC(=O)c2cccc([N+](=O)[O-])c2)C1 (configuration not stated) | inconclusive: 20.6 µM [inhibitor, partial curve] | –
36 | Cc1ccc2c(CN(C)Cc3ccc(OC(F)F)cc3)cc(=O)oc2c1C | – | inactive: -13.9%
37 | CCOC(=O)c1[nH]c(C)c(C(=O)C(C)C)c1C | inconclusive: 16.4 µM [activator, partial curve] | –
38 | CN(C(=O)CCCN1C(=O)c2cccc3cccc(c23)C1=O)c1ccccc1 | inconclusive: 32.6 µM [inhibitor, single point] | –
39 | CCc1[nH]nc2c1C(C1C=CCCC1)C(C#N)=C(N)O2 (configuration not stated) | inconclusive: 32.6 µM [inhibitor, partial curve, poor fit] | –
40 | Cc1cc(N2CCOCC2)c2c(N)cc(C)c(C)c2n1 | inconclusive: 13 µM [inhibitor, partial curve] | –
41 | CN1C(=O)C(C)(C)c2cc(S(=O)(=O)N3CCN(c4ccccc4)CC3)ccc21 | inconclusive: 16.4 µM [activator, single point] | –
42 | Cc1ccccc1C(=O)Nc1ccc(C(=O)N/N=C/c2ccc(O)c(Br)c2)cc1 | – | inactive: -19.1%

Retrieved one by one from the list above (3):
Row | Compound | Potency | activity change, negative = inhibition
40 | Cc1cc(N2CCOCC2)c2c(N)cc(C)c(C)c2n1 | inconclusive: 13 µM [inhibitor, partial curve] | –
37 | CCOC(=O)c1[nH]c(C)c(C(=O)C(C)C)c1C | inconclusive: 16.4 µM [activator, partial curve] | –
33 | O=C(CSc1nnc(-c2ccccn2)o1)Nc1ccccc1Cl | inconclusive: 9.2 µM [activator, partial curve] | –
